In patent publication US20210079476A1, “BIOMARKERS OF RENAL OSTEODYSTROPHY TYPE” (The Trustees of Columbia University in the City of New York, priority 2018, published 2021):
Read-outs that look alike come from different tables or passages of the source. At least one compound was matched to its structure with a doubt left.

Columns and labels:
CKD rats (Cy/+) [1] = test: Cy/+ rat model of CKD: bone turnover by histomorphometry after treatment; type: in vivo
Source text: (§1) The Cy/+ rat model of CKD was used to assess bone expression of miRNAs. Cy/+ rats are characterized by an autosomal dominant progressive cystic kidney disease that is […] with human ADPKD(63). […] The Cy/+IU colony of rats has been bred for nearly 20 years. The model recapitulates CKD-MBD with progressive kidney disease, hyperphosphatemia, secondary hyperparathyroidism, elevated FGF-23, resulting in ROD and vascular calcification. Importantly, the slowly progressive nature of the model allows for examination of interventions that differentially affect bone remodeling. […] In brief, CKD animals (n=8-10 each group) began treatment at 25 weeks for a total of 10 weeks and received 1) no treatment (control CKD=high PTH/high turnover, 2) 3% calcium in the drinking water (CKD/Ca group=low PTH/low turnover), or 3) a single injection of zoledronic acid (CKD/Zol group=high PTH/low turnover). At 35 weeks of age, animals were euthanized and bone tissue were collected. Bone histomorphometry as previously reported (67). RNA was isolated from tibia and bone miRNA expression determined by real time PCR using TaqMan miRNA assay as above.
The Cy/+ rat model of CKD was used to assess bone expression of miRNAs. […] The Cy/+IU colony of rats has been bred at Indiana University for nearly 20 years. […]

[2] = system: miRNA 30b, 30c, 125b and 155; type: in vivo, rat; details: CKD rats; for bone-tissue expression of miRNA-30b vs rats with high turnover / bone-tissue expression of miRNA-30c vs rats with high turnover / bone-tissue expression of miRNA-125b vs rats with high turnover / bone-tissue expression of miRNA-155 vs rats with high turnover: tibia, 35 weeks of age
Source text: as §1
The Cy/+ rat model of CKD was used to assess bone expression of miRNAs. […] The Cy/+IU colony of rats has been bred at Indiana University for nearly 20 years. The model recapitulates CKD-MBD with progressive kidney disease, hyperphosphatemia, secondary hyperparathyroidism, elevated FGF-23, resulting in ROD and vascular calcification. Importantly, the slowly progressive nature of the model allows for examination of interventions that differentially affect bone remodeling. Specifically, we have induced low turnover bone remodeling by two methods: with calcium in the drinking water (calcium binders) and zoledronic acid.^41, 42 In brief, CKD animals (n=8 to 10 each group) began treatment at 25 weeks for a total of 10 weeks and received: (i) no treatment (control CKD=high PTH/high turnover; (ii) 3% calcium in the drinking water (CKD/Ca group=low PTH/low turnover); or (iii) a single injection of 20 μg/kg of zoledronic acid (CKD/Zol group=high PTH/low turnover). At 35 weeks of age, animals were euthanized and bone tissue was collected. Bone histomorphometry was performed as previously reported.^43 RNA was isolated from tibia, and bone miRNA expression was determined by real-time PCR using TaqMan miRNA assay as described above. All procedures were reviewed and approved by the Indiana University School of Medicine Institutional Animal Care and Use Committee.

CKD rats (Cy/+) [3] = details: Cy/+ rat model; cited from earlier work

## O=P(O)(O)C(O)(Cn1ccnc1)P(=O)(O)O [zoledronic acid]
CKD rats (Cy/+) [1]; same treatment groups, untreated CKD = high PTH
  PTH status of the treated group: high PTH
CKD rats (Cy/+) [1]; treatment from 25 weeks of age for 10 weeks, 3% calcium in drinking water or single injection of zoledronic acid, untreated CKD = high turnover
  type of bone turnover induced by the intervention (histomorphometry): low turnover
[2]; bone tissue
  levels of miRNAs, low turnover induced by dietary calcium compared with zoledronic acid: did not differ
[2]
  bone-tissue expression of miRNA-30b vs rats with high turnover: lower
  bone-tissue expression of miRNA-30c vs rats with high turnover: lower
  bone-tissue expression of miRNA-125b vs rats with high turnover: lower
  bone-tissue expression of miRNA-155 vs rats with high turnover: but not 155 were lower
[2]; listed as bisphosphonate
  bone-tissue expression of miRNA-30b vs rats with high turnover: low expression
  bone-tissue expression of miRNA-30c vs rats with high turnover: low expression
  bone-tissue expression of miRNA-125b vs rats with high turnover: low expression
  bone-tissue expression of miRNA-155 vs rats with high turnover: low expression
CKD rats (Cy/+) [3]
  induction of low turnover bone remodeling: low turnover bone remodeling has been induced
